Reference: patent EP0986401B1, “P-SELECTIN TRANSLOCATION TO VASCULAR EPITHELIAL LUMEN BY IONIZING RADIATION” (ARCH DEVELOPMENT CORPORATION, priority 1997, dated 1998)

Test system: P-selectin
Assay: P-selectin translocation in irradiated HUVEC with microtubule or actin agents, confocal immunofluorescence
Assay type: cell-based, human

## CN[C@H]1CCc2cc(OC)c(OC)c(OC)c2-c2ccc(OC)c(=O)cc21 [colcemid]
  8-fold increase in P-selectin immunofluorescence on the cell surface: abrogated
  x-ray induced translocation of P-selectin: inhibited
